Assay results as given in article PMC8582188.
No constants are given. Whether binding was seen depends on the method and setting. For part of these data: Binding seen in cells or lysates may run through a third protein. Some binding calls cover weakened binding; strength is not graded here. Sequences can lack the tags named with a protein. Blank lines part the entries; values can stand above or below the binder they belong to.

By UniProt entry, the sequences of proteins in these tests, tags left out. Residues count along the entry.
UniProt P07251, residues 36-545: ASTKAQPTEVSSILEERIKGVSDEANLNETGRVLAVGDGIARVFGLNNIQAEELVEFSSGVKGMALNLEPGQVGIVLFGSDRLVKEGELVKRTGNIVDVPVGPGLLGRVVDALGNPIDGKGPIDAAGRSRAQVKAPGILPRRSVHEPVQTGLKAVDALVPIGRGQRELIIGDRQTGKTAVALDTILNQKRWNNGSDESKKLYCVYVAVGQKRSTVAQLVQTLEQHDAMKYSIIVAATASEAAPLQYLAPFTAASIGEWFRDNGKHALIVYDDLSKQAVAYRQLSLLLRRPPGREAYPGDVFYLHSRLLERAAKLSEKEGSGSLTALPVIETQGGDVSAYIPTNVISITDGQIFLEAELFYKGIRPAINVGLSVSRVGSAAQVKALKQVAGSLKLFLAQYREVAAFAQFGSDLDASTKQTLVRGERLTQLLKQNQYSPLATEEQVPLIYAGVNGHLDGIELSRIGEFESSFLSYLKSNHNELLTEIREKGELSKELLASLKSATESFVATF

Assays:
Atp3-HA3 (S. cerevisiae) = target: T1, Atp3-HA3 (S. cerevisiae) (UniProt P38077); assay: co-IP; W303 cells with tagged plasmids grown in SC medium with 3% glycerol; lysis buffer 50 mM NaCl, 0.1% NP-40, 150 mM Tris-HCl pH 8.0; anti-HA or anti-Myc antibody and protein G Sepharose; in Fig. 4A precipitated by an HA antibody and detected by a Myc antibody
T1 sequence: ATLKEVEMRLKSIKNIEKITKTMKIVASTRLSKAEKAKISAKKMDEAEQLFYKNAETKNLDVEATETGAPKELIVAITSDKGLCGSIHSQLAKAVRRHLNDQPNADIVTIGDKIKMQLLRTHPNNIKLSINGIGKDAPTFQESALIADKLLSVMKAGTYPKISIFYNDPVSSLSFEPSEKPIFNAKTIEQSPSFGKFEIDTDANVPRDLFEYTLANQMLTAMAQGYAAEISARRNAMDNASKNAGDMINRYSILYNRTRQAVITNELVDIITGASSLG

Atp1-HA3 (S. cerevisiae) = Atp1-HA3 (S. cerevisiae) (UniProt P07251); assay: as above
[1] = target: recombinant His6-Atp1 (S. cerevisiae) (UniProt P07251); assay: pull-down; Talon-bead-bound His-tagged proteins incubated with 5 ug GST proteins; 20 mM Tris-HCl pH 7.4, 100 mM NaCl, 0.1% NP-40, 4 °C, 1 h; washed with 50 mM imidazole; immunoblot; both purified

binding (Atp3-HA3 (S. cerevisiae)): binds | binding (Atp1-HA3 (S. cerevisiae)): binds
B1: Ids2-Myc13 (protein, UniProt P46958 1-469)
chain: MDNQQESISEDITGDLAAAVRKSWSESQDNPLLLNFNNSPIGTPTDRYSPEPATMMEGNAMNLSSLARGSTQQQQRLYGSSQTREKSDQQQQDYQLFKHHYSLGQETRESVSDILNDLTLGSPEPSERASPIRQPSVDVPPLTTRRSSIQDVQWIRHLLNPRSSFSGASSNEPTNSPGDFLNQSRAWITILHDSSAESLQAVIVLAESLKNVNSQYNLWVLHSSEVNAFQLAQVGIKTLIIDEYINLFMNFGTGSGFSASSQSTETKGELNFKWCKLFLFFSLIDRFELICYLSPTCLVLQNIDELLESTEVSDEIDNETCVLLSNKVNYINEDLVSVNQDQSSAENYDDDPQIIILKPNRAVAMCIKEYFTIYGNDFEGESKRSMFHQMNDLQIMKALFGDKWSYIDSVGYCAVPIASVPANRLNYKIIEFKILKPWERQNYIAAGQHRESIMNKWLDLWRDFLNQAN

binding [1]: binds weakly
B2: recombinant GST-tagged Ids2 (protein, UniProt P46958 1-469)
chain: B1 chain
